Results on one molecule are retold here after patent publication US20220112255A1.

No constants are given. Whether binding was seen depends on the method and setting. Some binding calls cover weakened binding; strength is not graded here. Where a sequence is shown, tags or fusion partners need not be part of it.

The target of this experiment is T1, C-terminal His-tagged HER4 receptor extracellular domain (ECD) construct (UniProt Q15303).
T1 sequence (looked up): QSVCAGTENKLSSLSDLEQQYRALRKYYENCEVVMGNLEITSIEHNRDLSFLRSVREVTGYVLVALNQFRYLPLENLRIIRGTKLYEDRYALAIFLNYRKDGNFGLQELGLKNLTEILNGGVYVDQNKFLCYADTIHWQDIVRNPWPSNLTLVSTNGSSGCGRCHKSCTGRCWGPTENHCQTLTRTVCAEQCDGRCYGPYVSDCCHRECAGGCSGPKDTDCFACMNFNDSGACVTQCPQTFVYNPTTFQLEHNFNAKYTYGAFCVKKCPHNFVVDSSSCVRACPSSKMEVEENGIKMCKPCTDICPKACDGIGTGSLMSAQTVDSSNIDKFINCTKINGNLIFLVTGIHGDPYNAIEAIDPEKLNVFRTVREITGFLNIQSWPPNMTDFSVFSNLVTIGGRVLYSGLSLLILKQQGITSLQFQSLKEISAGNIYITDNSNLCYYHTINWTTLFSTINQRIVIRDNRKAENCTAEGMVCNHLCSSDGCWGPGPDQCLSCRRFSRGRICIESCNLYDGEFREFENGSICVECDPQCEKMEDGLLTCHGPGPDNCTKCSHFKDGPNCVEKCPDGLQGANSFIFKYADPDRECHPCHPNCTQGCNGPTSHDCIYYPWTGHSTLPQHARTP
In words: ELISA: His-tagged HER4 ECD captured by anti-His antibody; NRG-Fc; anti-human Fc-AP detection.

B1: WT NRG4 Fc fusion (parental hFcNRG4) (Fc fusion, not shown: a dimerising Fc or GST)
chain: DHEEPCGPSHKSFCLNGGLCYVIPTIPSPFCRCVENYTGARCEEVFL
As to B1, the binding entry is recorded as “binds”.
